# Measured values reported in paper PMC6541287 (2019).
# No constants are given. Whether binding was seen depends on the method and setting. Binding calls can cover weak binding; strength is not graded here. Sequences can lack the tags named with a protein.
# Target: T1, recombinant Eh14-3-3 Protein 3 (EhP3) (E. histolytica) (UniProt P42650)
# T1 sequence: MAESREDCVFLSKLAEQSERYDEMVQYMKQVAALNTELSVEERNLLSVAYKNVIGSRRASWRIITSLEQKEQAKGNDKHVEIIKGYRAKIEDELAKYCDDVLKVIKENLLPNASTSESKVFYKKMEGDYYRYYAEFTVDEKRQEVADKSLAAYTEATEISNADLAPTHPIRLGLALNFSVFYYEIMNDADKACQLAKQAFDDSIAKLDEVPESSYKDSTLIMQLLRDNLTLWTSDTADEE
# Assay: SPR; Autolab SPR; EhP3 immobilised on NHS/EDC-activated gold surface in HEPES buffer pH 7.4; recombinant actin binding proteins injected at 200 nM, 20 μl/min, reference flow cell, 25°C; both purified
row,Substance,binding
1,recombinant Profilin B (E. histolytica),no binding (tested: 200 nM)
2,recombinant Twinfilin (E. histolytica),no binding (tested: 200 nM)
3,recombinant Actophorin (E. histolytica),no binding (tested: 200 nM)
4,recombinant EhCoactosin (E. histolytica),binds

# More lines, now with the values ahead:
row,binding,Substance
1,no binding (tested: 200 nM),recombinant Profilin A (E. histolytica)
2,no binding (tested: 200 nM),recombinant Filamin (E. histolytica)
